Source: publication PMC9241928
Results are given in words; binding and its absence hold for the method and conditions named. Binding seen in cells or lysates may run through a third protein. Some binding calls cover weakened binding; strength is not graded here.

By UniProt entry, the sequences of proteins in these tests, tags left out.
UniProt P17844: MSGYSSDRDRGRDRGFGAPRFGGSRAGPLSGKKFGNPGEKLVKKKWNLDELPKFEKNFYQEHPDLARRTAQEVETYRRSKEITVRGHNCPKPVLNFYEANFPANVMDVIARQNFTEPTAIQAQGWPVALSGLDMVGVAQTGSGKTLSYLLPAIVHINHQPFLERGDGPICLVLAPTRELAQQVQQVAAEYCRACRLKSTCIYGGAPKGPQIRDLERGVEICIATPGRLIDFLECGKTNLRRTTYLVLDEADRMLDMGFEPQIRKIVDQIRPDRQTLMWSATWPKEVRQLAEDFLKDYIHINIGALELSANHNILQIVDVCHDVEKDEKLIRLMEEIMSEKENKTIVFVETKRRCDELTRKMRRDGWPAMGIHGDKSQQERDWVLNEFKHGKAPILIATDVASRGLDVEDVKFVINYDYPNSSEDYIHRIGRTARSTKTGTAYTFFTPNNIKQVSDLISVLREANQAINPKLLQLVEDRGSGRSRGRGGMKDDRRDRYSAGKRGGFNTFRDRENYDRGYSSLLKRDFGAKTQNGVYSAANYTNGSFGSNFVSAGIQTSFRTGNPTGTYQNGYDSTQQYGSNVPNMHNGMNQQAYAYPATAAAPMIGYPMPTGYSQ
UniProt P15682: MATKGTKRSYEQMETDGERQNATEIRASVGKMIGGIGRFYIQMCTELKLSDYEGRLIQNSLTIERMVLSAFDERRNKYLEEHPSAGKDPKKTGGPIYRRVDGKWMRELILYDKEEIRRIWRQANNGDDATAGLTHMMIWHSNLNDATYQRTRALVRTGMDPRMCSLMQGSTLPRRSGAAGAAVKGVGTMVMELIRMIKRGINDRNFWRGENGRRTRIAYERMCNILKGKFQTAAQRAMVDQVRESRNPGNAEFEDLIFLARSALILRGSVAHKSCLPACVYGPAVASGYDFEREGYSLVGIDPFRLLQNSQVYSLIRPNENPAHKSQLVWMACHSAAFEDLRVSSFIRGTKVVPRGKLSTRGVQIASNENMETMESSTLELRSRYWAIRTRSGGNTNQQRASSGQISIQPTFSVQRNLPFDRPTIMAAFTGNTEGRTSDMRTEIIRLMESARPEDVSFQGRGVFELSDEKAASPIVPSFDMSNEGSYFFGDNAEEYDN

Molecular target: endogenous DDX5 (human (endogenous in A549)) (UniProt P17844)
Assay: co-IP

NP of influenza virus WSN/1933 in infected cells (from UniProt P15682 1-498)
binding: binds
